Laboratory results reported in article PMC4354016, “Centromeric binding and activity of Protein Phosphatase 4” (Nature Communications, 2015).
Results are given in words; binding and its absence hold for the method and conditions named. Binding seen in cells or lysates may run through a third protein. For part of these data: A result given as binding can be weak or reduced; the word gives no strength. For part of these data: Tags and fused reporters may be left off the sequences shown.

Amino acid sequences for entries named in this document (tags omitted). A change or cut given only in a name is not applied to a line headed by its entry.
UniProt Q9VFS5: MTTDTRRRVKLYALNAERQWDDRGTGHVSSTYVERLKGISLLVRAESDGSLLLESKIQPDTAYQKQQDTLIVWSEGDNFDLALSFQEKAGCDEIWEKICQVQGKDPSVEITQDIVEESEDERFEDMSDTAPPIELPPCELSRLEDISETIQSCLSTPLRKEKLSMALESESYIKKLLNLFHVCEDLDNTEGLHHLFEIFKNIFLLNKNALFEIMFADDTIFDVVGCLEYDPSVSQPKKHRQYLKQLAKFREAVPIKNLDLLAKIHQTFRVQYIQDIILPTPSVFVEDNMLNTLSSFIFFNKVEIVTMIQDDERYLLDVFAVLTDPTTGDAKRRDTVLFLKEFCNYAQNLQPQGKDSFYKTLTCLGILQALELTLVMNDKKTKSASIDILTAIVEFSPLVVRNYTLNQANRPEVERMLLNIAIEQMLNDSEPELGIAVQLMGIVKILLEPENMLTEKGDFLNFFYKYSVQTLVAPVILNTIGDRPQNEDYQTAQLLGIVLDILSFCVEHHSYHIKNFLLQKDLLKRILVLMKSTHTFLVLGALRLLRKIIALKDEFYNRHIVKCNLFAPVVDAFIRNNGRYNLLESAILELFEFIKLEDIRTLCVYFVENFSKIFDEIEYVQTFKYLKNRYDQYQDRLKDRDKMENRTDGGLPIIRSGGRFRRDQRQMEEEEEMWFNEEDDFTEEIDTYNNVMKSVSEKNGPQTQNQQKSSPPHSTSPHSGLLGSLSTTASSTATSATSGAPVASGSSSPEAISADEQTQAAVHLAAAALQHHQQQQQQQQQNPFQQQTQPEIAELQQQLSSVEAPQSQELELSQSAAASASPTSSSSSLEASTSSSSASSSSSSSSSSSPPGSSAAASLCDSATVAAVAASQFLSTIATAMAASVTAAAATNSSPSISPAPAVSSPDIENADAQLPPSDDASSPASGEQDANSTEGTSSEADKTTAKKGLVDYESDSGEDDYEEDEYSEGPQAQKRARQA

Tests used:
[1] = target: GFP::Flfl (Drosophila melanogaster) (UniProt Q9VFS5); assay: co-IP; GFP-Trap beads; D.Mel-2 cells expressing FLAG::CENP-C (WT or ΔFIM) transiently co-transfected with GFP-tagged Flfl forms; immunoblot
[2] = target: GST-tagged Flfl^C (aa 667–973) (Drosophila melanogaster) (UniProt Q9VFS5); assay: pull-down; GST-tagged bait on Glutathione Sepharose 4b, IVTT 35S-Met-labelled prey, 1 h 25 °C, 50 mM HEPES pH 7.4, 150 mM NaCl, 0.1% Triton X-100, 0.5 mg/ml BSA; autoradiography; only the target purified

Binder | binding [1] | binding [2]
FLAG::CENP-C^WT (protein, UniProt Q9VHP9 1-1411) MSKPQNNDTLELDDILSQPVKDKERFAAFMMRKLAENKPAQNDNLFGNFKLDFDLDFEVPLIKKSQAKPKSKLPEVQPLGELVSKNSAATEKVNEPPVDQAPNENVPPRRSPTLSPNNRRSMRRSGNVPGSDKLRRHAIRRRSRSCGRQLLPEFEETVNLTRSISSPVNFLPEISSTPCTEKQKEEVAKNTTRVETDKPAEKPMELSQEPEPENPLQTKVTSPARNPILAAEIEQICKERQSSFHKNVLQLDYSGRAPYSRPPTPSSPSVAGLRRTYTMEKGPAPGQLLLSPSHRYDTPSKMPVVKAKRFNQELMVPDTPERQSHDPAWQSEPQPEFVVPETQPQDLGELVQTLSRSAISPIVVINTSNSNRSVRRDAVAMKSVPTSPVTALSSPPIAPSPRRSAAASPQKSIAQLPRVEENMDAIMTDDESDEHPSTVPLNLAPSGGNTTRQRRLRSSNRARATIESQESSMRLLNLHKSVNAKKSKPRKTAIPLNKAPSAPINGEQFARELTRMSNYEILDLRKRNSLNEIYPLNGHRNHRSEKLILEEEIQRELLRRNLMDEAEGLPKQQSSDDSNEDYIPVPPKTQSLRTKSNDRSQGRGRPRSTRRDLPMTTELVNYLGLSQTLETRRKSSKDGKRCLYTKGSSDHEDNDSLSPVKLPRLSKSIQIVPPPPVSLRYSQSLQNLPCSGKFDFDNVVMAAPPDFHDSVNSDAIEIAPPPPEYVVNTRGRSTSGRKSNKNDLVLPPPGYEGGQEEEHDERPSQPRCTAKELQQSTQNGRRAMENELVPPPIEYVEEENRNNEQSRRSTKNGNLVDRNTHNAVEYCEPPEPPEYDDSDHGQASILRRSGKKLQHSKQSVQKSNKEQIIAPSYENNEDYDSDEEPIYNEEYGKEESQNKNVTRRKSDKDEMASHTLECIEGPDPNWNSSCNKQNRNHQNASKSKENDKLANRSSKSQKLSNPRQNAVGTEKSVALSNRGEECTEKSSDVMESLRVNTPTPPIDQNSDDVPSRNPSPSRTLLSDDVPSTSRAALEFLQRSQNMSKSRPPDESSADVVFKKPLAPAPRAKSKKGKSEVDKLKLAKMPVEAEELNTTGIRRSKRGQVPLQMSWCHTMDPSKFNFMSGFIEPRSKNSKTKKGNLSKAKKASATKPKPTVEKNLPDNRGPLCSSTPRISEKLPGAIPHSESLGLSTLTWEETEVQAEAEKVPKKRGRPKKAVGGVQTDTEAEPEPEPEPMISSVAPLTSDQEEPDVPDEQAPYTEAALGPVVFSTPLRDEQEEASTKLMQWLRGVGDAPPSASMSDENASVSSANELIFCQVDGIDYAFYNTKEKAMLGYMRFKPYQKRSMKQAKVHPLKLLVQFGEFNVETLAVGEEKEVHSVLRVGDMIEIDRGTRYSIQNAIDKVSVLMCIRS | binds | –
FLAG::CENP-C^ΔFIM (protein, UniProt Q9VHP9) MSKPQNNDTLELDDILSQPVKDKERFAAFMMRKLAENKPAQNDNLFGNFKLDFDLDFEVPLIKKSQAKPKSKLPEVQPLGELVSKNSAATEKVNEPPVDQAPNENVPPRRSPTLSPNNRRSMRRSGNVPGSDKLRRHAIRRRSRSCGRQLLPEFEETVNLTRSISSPVNFLPEISSTPCTEKQKEEVAKNTTRVETDKPAEKPMELSQEPEPENPLQTKVTSPARNPILAAEIEQICKERQSSFHKNVLQLDYSGRAPYSRPPTPSSPSVAGLRRTYTMEKGPAPGQLLLSPSHRYDTPSKMPVVKAKRFNQELMVPDTPERQSHDPAWQSEPQPEFVVPETQPQDLGELVQTLSRSAISPIVVINTSNSNRSVRRDAVAMKSVPTSPVTALSSPPIAPSPRRSAAASPQKSIAQLPRVEENMDAIMTDDESDEHPSTVPLNLAPSGGNTTRQRRLRSSNRARATIESQESSMRLLNLHKSVNAKKSKPRKTAIPLNKAPSAPINGEQFARELTRMSNYEILDLRKRNSLNEIYPLNGHRNHRSEKLILEEEIQRELLRRNLMDEAEGLPKQQSSDDSNEDYIPVPPKTQSLRTKSNDRSQGRGRPRSTRRDLPMTTELVNYLGLSQTLETRRKSSKDGKRCLYTKGSSDHEDNDSLSPVKLPRLSKSIQIVPPPPVSLRYSQSLQNLPCSGKFDFDNVVMAAPPDFHDSVNSDAIEIAPPPPEYVVNTRGRSTSGRKSNKNDLVLPPPGYEGGQEEEHDERPSQPRCTAKELQQSTQNGRRAMENELVPPPIEYVEEENRNNEQSRRSTKNGNLVDRNTHNAVEYCEPPEPPEYDDSDHGQASILRRSGKKLQHSKQSVQKSNKEQIIAPSYENNEDYDSDEEPIYNEEYGKEESQNKNVTRRKSDKDEMASHTLECIEGPDPNWNSSCNKQNRNHQNASKSKENDKLANRSSKSQKLSNPRQNAVGTEKSVALSNRGEECTEKSSDVMESLRVNTPTPPIDQNSDDVPSRNPSPSRTLLSDDVPSTSRAALEFLQRSQNMSKSRPAKSKKGKSEVDKLKLAKMPVEAEELNTTGIRRSKRGQVPLQMSWCHTMDPSKFNFMSGFIEPRSKNSKTKKGNLSKAKKASATKPKPTVEKNLPDNRGPLCSSTPRISEKLPGAIPHSESLGLSTLTWEETEVQAEAEKVPKKRGRPKKAVGGVQTDTEAEPEPEPEPMISSVAPLTSDQEEPDVPDEQAPYTEAALGPVVFSTPLRDEQEEASTKLMQWLRGVGDAPPSASMSDENASVSSANELIFCQVDGIDYAFYNTKEKAMLGYMRFKPYQKRSMKQAKVHPLKLLVQFGEFNVETLAVGEEKEVHSVLRVGDMIEIDRGTRYSIQNAIDKVSVLMCIRS | no binding | –
^35S-Met-labelled full-length CENP-C (IVTT) (protein, UniProt Q9VHP9 1-1411, 35S-methionine labelled) MSKPQNNDTLELDDILSQPVKDKERFAAFMMRKLAENKPAQNDNLFGNFKLDFDLDFEVPLIKKSQAKPKSKLPEVQPLGELVSKNSAATEKVNEPPVDQAPNENVPPRRSPTLSPNNRRSMRRSGNVPGSDKLRRHAIRRRSRSCGRQLLPEFEETVNLTRSISSPVNFLPEISSTPCTEKQKEEVAKNTTRVETDKPAEKPMELSQEPEPENPLQTKVTSPARNPILAAEIEQICKERQSSFHKNVLQLDYSGRAPYSRPPTPSSPSVAGLRRTYTMEKGPAPGQLLLSPSHRYDTPSKMPVVKAKRFNQELMVPDTPERQSHDPAWQSEPQPEFVVPETQPQDLGELVQTLSRSAISPIVVINTSNSNRSVRRDAVAMKSVPTSPVTALSSPPIAPSPRRSAAASPQKSIAQLPRVEENMDAIMTDDESDEHPSTVPLNLAPSGGNTTRQRRLRSSNRARATIESQESSMRLLNLHKSVNAKKSKPRKTAIPLNKAPSAPINGEQFARELTRMSNYEILDLRKRNSLNEIYPLNGHRNHRSEKLILEEEIQRELLRRNLMDEAEGLPKQQSSDDSNEDYIPVPPKTQSLRTKSNDRSQGRGRPRSTRRDLPMTTELVNYLGLSQTLETRRKSSKDGKRCLYTKGSSDHEDNDSLSPVKLPRLSKSIQIVPPPPVSLRYSQSLQNLPCSGKFDFDNVVMAAPPDFHDSVNSDAIEIAPPPPEYVVNTRGRSTSGRKSNKNDLVLPPPGYEGGQEEEHDERPSQPRCTAKELQQSTQNGRRAMENELVPPPIEYVEEENRNNEQSRRSTKNGNLVDRNTHNAVEYCEPPEPPEYDDSDHGQASILRRSGKKLQHSKQSVQKSNKEQIIAPSYENNEDYDSDEEPIYNEEYGKEESQNKNVTRRKSDKDEMASHTLECIEGPDPNWNSSCNKQNRNHQNASKSKENDKLANRSSKSQKLSNPRQNAVGTEKSVALSNRGEECTEKSSDVMESLRVNTPTPPIDQNSDDVPSRNPSPSRTLLSDDVPSTSRAALEFLQRSQNMSKSRPPDESSADVVFKKPLAPAPRAKSKKGKSEVDKLKLAKMPVEAEELNTTGIRRSKRGQVPLQMSWCHTMDPSKFNFMSGFIEPRSKNSKTKKGNLSKAKKASATKPKPTVEKNLPDNRGPLCSSTPRISEKLPGAIPHSESLGLSTLTWEETEVQAEAEKVPKKRGRPKKAVGGVQTDTEAEPEPEPEPMISSVAPLTSDQEEPDVPDEQAPYTEAALGPVVFSTPLRDEQEEASTKLMQWLRGVGDAPPSASMSDENASVSSANELIFCQVDGIDYAFYNTKEKAMLGYMRFKPYQKRSMKQAKVHPLKLLVQFGEFNVETLAVGEEKEVHSVLRVGDMIEIDRGTRYSIQNAIDKVSVLMCIRS | – | no binding
